# Source: the supplement of paper PMC12067093, “Discovery and optimisation of a covalent ligand for TRIM25 and its application to targeted protein ubiquitination” (Chemical Science, 2025)
# Sequences of proteins named here, by UniProt entry; tags and fusion partners are left off. A change or cut given only in a name is not applied to a line headed by its entry.
# UniProt Q99996, whole entry, looked up: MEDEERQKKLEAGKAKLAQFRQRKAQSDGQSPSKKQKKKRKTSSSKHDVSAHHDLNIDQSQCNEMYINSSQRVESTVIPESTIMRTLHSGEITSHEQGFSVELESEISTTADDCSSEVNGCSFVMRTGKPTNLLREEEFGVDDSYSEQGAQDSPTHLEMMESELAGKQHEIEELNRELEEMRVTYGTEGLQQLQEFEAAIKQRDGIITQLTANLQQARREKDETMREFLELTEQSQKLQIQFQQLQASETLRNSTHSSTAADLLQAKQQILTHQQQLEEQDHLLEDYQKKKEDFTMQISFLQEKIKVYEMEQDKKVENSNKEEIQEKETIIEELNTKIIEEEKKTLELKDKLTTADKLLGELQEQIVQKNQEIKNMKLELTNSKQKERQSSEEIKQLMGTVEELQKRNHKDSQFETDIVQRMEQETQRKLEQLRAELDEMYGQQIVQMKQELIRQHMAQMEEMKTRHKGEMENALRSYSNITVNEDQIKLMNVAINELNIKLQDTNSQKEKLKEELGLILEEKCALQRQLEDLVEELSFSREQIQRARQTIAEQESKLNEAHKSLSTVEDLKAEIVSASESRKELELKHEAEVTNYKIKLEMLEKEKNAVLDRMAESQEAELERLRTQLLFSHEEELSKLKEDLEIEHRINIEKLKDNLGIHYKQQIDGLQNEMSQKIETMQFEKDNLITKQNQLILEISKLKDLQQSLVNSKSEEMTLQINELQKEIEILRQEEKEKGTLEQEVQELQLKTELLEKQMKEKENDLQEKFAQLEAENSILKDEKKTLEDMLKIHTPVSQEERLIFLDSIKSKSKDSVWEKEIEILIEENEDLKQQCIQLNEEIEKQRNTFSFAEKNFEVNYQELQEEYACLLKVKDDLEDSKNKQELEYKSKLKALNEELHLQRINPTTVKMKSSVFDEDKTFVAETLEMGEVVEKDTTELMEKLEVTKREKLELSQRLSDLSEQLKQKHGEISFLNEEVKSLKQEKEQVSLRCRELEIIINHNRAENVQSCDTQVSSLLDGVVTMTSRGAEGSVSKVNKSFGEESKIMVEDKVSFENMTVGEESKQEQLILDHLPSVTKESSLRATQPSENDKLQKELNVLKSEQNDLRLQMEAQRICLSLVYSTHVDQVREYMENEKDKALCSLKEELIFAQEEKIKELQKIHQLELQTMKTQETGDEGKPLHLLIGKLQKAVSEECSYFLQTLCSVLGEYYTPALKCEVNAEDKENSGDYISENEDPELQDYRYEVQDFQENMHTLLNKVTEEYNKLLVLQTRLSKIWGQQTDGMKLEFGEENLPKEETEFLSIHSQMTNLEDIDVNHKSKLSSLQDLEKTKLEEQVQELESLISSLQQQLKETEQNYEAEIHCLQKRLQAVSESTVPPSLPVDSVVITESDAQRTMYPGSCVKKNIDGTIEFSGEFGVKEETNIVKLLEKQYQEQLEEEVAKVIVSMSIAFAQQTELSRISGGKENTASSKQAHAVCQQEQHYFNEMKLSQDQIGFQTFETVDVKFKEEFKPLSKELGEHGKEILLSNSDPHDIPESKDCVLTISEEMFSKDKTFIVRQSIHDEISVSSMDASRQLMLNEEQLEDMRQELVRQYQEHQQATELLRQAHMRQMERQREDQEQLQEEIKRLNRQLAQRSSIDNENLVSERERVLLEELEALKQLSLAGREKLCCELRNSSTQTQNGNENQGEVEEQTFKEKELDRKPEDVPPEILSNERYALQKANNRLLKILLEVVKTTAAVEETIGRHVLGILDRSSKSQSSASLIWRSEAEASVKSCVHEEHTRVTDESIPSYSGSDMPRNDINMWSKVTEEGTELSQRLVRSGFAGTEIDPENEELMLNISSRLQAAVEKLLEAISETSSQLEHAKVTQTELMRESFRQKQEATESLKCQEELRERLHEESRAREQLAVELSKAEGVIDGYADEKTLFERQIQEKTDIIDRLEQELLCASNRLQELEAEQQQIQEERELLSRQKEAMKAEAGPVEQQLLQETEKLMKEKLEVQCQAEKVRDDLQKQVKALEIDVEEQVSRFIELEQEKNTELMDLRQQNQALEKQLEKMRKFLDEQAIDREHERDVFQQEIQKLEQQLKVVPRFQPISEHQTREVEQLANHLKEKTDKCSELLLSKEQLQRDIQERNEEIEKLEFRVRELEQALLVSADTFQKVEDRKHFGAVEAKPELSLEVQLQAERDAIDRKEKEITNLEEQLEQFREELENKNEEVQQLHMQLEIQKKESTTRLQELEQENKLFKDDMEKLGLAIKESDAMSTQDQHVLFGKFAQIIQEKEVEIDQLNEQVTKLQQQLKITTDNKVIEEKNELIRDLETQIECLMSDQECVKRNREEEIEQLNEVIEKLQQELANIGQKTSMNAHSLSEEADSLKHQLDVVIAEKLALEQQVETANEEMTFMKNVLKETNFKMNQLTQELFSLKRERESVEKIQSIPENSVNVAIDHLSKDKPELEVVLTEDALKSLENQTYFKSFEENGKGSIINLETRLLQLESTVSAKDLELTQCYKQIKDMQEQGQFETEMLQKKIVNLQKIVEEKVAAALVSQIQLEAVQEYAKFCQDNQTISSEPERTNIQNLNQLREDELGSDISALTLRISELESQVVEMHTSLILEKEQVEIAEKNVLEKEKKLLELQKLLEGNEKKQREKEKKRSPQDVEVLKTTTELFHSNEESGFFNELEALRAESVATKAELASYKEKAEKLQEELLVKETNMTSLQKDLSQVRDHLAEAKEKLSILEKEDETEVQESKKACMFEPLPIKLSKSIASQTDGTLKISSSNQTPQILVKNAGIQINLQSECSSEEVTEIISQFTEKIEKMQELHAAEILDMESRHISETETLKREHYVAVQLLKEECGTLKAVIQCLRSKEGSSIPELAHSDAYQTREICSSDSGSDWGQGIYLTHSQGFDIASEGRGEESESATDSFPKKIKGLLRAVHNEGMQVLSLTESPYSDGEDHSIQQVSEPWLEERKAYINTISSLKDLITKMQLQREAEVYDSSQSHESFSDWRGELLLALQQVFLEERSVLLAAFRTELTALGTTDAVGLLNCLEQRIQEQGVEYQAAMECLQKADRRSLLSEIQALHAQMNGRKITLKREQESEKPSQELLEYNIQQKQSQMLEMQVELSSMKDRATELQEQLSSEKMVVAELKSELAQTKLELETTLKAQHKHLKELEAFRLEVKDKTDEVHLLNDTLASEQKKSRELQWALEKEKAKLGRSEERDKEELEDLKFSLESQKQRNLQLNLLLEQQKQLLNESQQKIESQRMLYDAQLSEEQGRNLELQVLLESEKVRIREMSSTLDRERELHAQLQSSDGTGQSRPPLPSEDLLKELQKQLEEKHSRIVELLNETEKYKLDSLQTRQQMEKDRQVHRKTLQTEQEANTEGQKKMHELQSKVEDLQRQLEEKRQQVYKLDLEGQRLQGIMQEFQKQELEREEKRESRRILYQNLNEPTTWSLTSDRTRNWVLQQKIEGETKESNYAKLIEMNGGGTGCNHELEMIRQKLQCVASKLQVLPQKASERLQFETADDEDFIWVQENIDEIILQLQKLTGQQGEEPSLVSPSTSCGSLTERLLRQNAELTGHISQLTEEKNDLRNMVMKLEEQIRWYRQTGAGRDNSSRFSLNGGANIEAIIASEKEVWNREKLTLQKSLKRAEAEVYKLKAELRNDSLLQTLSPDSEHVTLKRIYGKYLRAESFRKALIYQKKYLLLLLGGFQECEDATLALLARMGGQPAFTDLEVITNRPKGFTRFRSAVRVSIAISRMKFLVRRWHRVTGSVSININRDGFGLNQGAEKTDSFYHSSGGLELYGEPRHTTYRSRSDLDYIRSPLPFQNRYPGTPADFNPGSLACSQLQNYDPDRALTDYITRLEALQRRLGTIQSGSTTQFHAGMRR
# UniProt P23526: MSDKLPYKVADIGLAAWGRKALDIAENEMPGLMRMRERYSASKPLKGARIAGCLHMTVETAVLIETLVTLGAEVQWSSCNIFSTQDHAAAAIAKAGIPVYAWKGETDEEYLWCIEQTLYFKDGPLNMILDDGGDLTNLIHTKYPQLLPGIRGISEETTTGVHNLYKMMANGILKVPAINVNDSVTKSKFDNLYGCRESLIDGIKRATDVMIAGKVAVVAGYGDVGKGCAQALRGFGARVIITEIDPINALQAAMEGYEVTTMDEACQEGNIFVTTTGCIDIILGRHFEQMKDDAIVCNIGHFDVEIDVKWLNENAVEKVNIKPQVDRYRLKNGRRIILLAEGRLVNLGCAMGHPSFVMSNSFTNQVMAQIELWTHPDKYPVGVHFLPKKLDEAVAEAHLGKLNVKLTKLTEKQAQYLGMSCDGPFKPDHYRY
# UniProt P04075: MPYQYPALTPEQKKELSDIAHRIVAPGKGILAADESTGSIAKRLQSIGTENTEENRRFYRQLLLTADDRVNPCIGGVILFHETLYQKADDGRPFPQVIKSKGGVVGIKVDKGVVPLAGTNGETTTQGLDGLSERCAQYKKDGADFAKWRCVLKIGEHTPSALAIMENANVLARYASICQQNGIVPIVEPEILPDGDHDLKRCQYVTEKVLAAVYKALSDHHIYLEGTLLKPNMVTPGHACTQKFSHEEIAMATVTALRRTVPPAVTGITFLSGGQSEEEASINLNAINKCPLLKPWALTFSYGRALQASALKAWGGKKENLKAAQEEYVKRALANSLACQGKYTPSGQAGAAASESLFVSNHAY
# UniProt P54886: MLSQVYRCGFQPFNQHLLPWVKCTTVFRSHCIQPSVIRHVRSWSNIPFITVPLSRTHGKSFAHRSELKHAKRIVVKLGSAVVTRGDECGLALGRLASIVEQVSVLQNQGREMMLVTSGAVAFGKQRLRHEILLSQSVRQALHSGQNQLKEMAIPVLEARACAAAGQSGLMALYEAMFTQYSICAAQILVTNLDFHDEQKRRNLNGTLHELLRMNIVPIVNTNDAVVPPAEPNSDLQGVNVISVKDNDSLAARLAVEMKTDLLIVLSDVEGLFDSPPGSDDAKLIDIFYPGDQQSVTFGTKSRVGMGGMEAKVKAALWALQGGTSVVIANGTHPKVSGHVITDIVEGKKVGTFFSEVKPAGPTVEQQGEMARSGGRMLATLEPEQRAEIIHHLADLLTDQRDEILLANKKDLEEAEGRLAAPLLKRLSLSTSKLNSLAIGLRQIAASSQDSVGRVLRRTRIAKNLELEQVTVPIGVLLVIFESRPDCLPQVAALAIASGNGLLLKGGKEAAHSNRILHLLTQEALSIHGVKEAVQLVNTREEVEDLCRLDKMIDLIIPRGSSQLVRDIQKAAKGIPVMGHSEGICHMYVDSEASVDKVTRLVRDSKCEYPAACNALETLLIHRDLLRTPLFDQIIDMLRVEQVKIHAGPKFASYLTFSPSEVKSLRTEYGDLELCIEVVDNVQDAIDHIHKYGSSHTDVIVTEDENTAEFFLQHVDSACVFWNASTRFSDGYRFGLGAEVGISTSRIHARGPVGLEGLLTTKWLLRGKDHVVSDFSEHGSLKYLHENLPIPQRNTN
# UniProt P49419: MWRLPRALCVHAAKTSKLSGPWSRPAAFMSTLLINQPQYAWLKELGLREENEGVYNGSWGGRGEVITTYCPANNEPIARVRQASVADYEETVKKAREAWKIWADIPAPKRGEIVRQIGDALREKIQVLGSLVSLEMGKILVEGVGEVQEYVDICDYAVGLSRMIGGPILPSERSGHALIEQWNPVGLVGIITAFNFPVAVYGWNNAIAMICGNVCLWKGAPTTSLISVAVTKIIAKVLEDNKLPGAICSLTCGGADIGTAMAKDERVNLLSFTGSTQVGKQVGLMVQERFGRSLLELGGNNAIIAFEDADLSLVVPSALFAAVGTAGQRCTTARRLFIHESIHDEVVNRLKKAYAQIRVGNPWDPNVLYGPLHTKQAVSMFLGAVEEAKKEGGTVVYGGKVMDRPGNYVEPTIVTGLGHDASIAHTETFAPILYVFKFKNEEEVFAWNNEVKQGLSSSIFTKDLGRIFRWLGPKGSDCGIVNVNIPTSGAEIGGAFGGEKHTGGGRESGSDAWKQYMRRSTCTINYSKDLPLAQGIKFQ
# UniProt O43865, whole entry, looked up: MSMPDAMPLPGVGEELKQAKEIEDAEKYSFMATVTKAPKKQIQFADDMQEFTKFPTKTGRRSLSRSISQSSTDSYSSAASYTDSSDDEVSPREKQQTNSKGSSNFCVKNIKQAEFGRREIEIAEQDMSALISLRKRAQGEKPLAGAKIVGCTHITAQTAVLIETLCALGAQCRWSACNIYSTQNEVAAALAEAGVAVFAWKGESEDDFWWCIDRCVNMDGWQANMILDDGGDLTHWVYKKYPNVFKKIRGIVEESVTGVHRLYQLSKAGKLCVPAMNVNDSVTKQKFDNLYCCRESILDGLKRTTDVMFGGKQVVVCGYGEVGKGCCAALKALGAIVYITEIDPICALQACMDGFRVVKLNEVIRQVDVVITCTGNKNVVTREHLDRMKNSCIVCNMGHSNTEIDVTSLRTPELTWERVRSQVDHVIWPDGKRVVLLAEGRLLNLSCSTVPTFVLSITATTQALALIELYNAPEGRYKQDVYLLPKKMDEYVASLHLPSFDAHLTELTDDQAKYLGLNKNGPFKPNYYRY
# Some of the results follow.
# Compound: CC1Cc2ccccc2N1C(=O)C1CCCN(C1)C(=O)CCl (mixture of isomers) [TRIM25 ligand 11 (diastereomer mixture)]
# Experiment: probe-labelled cysteine peptide fold change vs DMSO (competition) (log2 fold change); higher = less target engagement (more negative = stronger competition)
# Details: 50 µM; THP-1; incubation time: 4 h
# 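Further: competitive chemoproteomic profiling in live THP-1 cells with an iodoacetamide desthiobiotin (IA-DTB) probe, comparing probe-labelled peptide intensities in compound-treated cells against DMSO-treated controls.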
row,Target,probe-labelled cysteine peptide fold change
1,AKR1A1_P14550_187_QIDDILSVASVRPAVLQVECHPYLAQNELIAHCQAR (UniProt P14550),0.139
2,AK2_P54819_42_LAENFCVCHLATGDMLR (UniProt P54819),0.0844
3,ALKBH3_Q96Q83_201_CPIIASLSFGATR (UniProt Q96Q83),-0.192
4,AKAP9_Q99996_3063_TELTALGTTDAVGLLNCLEQR (UniProt Q99996),-0.0745
5,AMOT_Q4VCS5_741_CLDMEGR (UniProt Q4VCS5),0.0669
6,ALOX5_P09917_265_LPVTTEMVECSLER (UniProt P09917),-0.088
7,AHCY_P23526_113_GETDEEYLWCIEQTLYFK (UniProt P23526),0.147
8,AKAP9_Q99996_1782_SCVHEEHTR (UniProt Q99996),-0.142
9,AMFR_Q9UKV5_356+364_KLPCGHLFHNSCLR (UniProt Q9UKV5),-0.173
10,ALDOA_P04075_339_ALANSLACQGK (UniProt P04075),-0.155
11,ALDH18A1_P54886_546_EEVEDLCR (UniProt P54886),0.0208
12,ANAPC5_Q9UJX4_670_CQVASAASYDQPK (UniProt Q9UJX4),0.0346
13,AGL_P35573_767_EVPQMCIPGK (UniProt P35573),-0.0571
14,ALDH9A1_P49189_443_VVAELQAGTCFINNYNVSPVELPFGGYKK (UniProt P49189),0.0155
15,ALDH3B1_P43353_162_ILAEVLPQYVDQSCFAVVLGGPQETGQLLEHR (UniProt P43353),0.376
16,AGPS_O00116_565_GVQFAPFSTCR (UniProt O00116),0.111
17,ALDH2_P05091_66_KTFPTVNPSTGEVICQVAEGDKEDVDK (UniProt P05091),-0.271
18,ALDH7A1_P49419_522_STCTINYSK (UniProt P49419),0.148
19,AHCY_P23526_297_DDAIVCNIGHFDVEIDVK (UniProt P23526),0.44

row,Target,probe-labelled cysteine peptide fold change
1,AKAP17A_Q02040_17_AAATIVHDTSEAVELCPAYGLYLK (UniProt Q02040),0.399
2,AMBRA1_Q9C0C7_1036_GDLVICRPEALNSGVEYYWDQLNETVFTVHSNSR (UniProt Q9C0C7),-0.106
3,AKAP2_Q9Y2D5_296_RAQQEQLLLQKQLQQQQQQPPSQLCTAPASSHER (UniProt Q9Y2D5),-0.0878
4,ALDH16A1_Q8IZ83_249_VAFCGAPEEGR (UniProt Q8IZ83),0.136
5,AKR1A1_P14550_187+200_QIDDILSVASVRPAVLQVECHPYLAQNELIAHCQAR (UniProt P14550),-0.0131
6,ALDH18A1_P54886_584_GIPVMGHSEGICHMYVDSEASVDK (UniProt P54886),-0.177
7,AHCTF1_Q8WYP5_107_RTGLLIGLEETEGSVLCLYDLGISK (UniProt Q8WYP5),0.0178
8,AKAP2_Q9Y2D5_10_MEIEVSVAECK (UniProt Q9Y2D5),-0.252
9,AKR1B1_P15121_187_PAVNQIECHPYLTQEK (UniProt P15121),0.163
10,AKAP1_Q92667_655_IYISTLPYTQSVQICHIEGSQHHVDK (UniProt Q92667),0.538
11,ANAPC1_Q9H1A4_225_EPLPTMFSMLHPLDEITPLVCK (UniProt Q9H1A4),-0.0112
12,AKR7A2_O43488_156_LQCPQVDLFYLHAPDHGTPVEETLHACQR (UniProt O43488),0.266
13,AHCYL1_O43865_317_QVVVCGYGEVGK (UniProt O43865),0.104
14,ALDH1L2_Q3SY69_683_SCAVSNLK (UniProt Q3SY69),-0.0481
15,AHCY_P23526_195_SKFDNLYGCR (UniProt P23526),-0.0538
16,AKR1B1_P15121_299_VCALLSCTSHK (UniProt P15121),-0.0125
17,ALDOA_P04075_202_CQYVTEK (UniProt P04075),0.0847
18,ALG11_Q2TAA5_72_NQMVIAFFHPYCNAGGGGER (UniProt Q2TAA5),-0.618
19,AMACR_Q9UHK6_284_AEWCQIFDGTDACVTPVLTFEEVVHHDHNK (UniProt Q9UHK6),-0.21
